Results taken from paper PMC6050272.
No constants are given. Whether binding was seen depends on the method and setting. In cells and extracts the contact can be indirect. Some binding calls cover weakened binding; strength is not graded here. For part of these data: Tags and fused reporters may be left off the sequences shown. One block for each binder: values may come before it.

Experiments:
[1] = target: stimulator of interferon genes (STING), epitope-tagged (HA-STING; Myc-STING), Q86WV6; assay: co-IP; epitope-tagged proteins co-transfected in HEK 293T cells; NP-40 lysis buffer (50 mM Tris-Cl pH 7.4, 150 mM NaCl, 1 mM EDTA, 1% NP-40); antibody overnight at 4 °C, protein A agarose; washes with NP-40 lysis buffer containing 250 mM NaCl; immunoblot; in some panels with or without co-expressed NIK; settings: remark: other sources report otherwise
[2] = target: T1, STING, endogenous in mouse cells (mouse (endogenous in MEFs and BMDMs)) (UniProt Q3TBT3); assay: co-IP; endogenous proteins in MEF cells transfected with B-DNA (2 μg/mL) for the indicated times (Fig. 3b: immunoprecipitated for STING; Fig. 4h: pretreated with DMSO or SMAC mimetic 1 μg/mL for 16 h); NP-40 lysis buffer, washes with 250 mM NaCl; immunoblot
T1 sequence: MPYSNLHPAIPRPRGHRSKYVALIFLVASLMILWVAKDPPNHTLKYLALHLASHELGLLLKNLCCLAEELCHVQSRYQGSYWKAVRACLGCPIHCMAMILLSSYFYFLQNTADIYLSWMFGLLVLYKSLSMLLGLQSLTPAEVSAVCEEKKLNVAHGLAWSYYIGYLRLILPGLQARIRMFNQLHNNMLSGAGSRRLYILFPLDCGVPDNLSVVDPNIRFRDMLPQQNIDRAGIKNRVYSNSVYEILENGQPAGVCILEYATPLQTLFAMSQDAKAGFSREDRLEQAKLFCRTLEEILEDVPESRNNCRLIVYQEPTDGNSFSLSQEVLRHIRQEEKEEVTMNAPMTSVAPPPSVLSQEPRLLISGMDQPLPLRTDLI

[3] = target: T1, STING, endogenous in mouse cells (mouse (endogenous in MEFs and BMDMs)); assay: co-IP; endogenous proteins in WT and Nik-/- BMDMs transfected with B-DNA (2 μg/mL) for the indicated times, immunoprecipitated for STING; NP-40 lysis buffer, washes with 250 mM NaCl; immunoblot

- binding [1]: binds
B1: interferon regulatory factor 3 (IRF3), epitope-tagged (HA-IRF3; Flag-IRF3), Q14653 1-427 (protein)
chain: MGTPKPRILPWLVSQLDLGQLEGVAWVNKSRTRFRIPWKHGLRQDAQQEDFGIFQAWAEATGAYVPGRDKPDLPTWKRNFRSALNRKEGLRLAEDRSKDPHDPHKIYEFVNSGVGDFSQPDTSPDTNGGGSTSDTQEDILDELLGNMVLAPLPDPGPPSLAVAPEPCPQPLRSPSLDNPTPFPNLGPSENPLKRLLVPGEEWEFEVTAFYRGRQVFQQTISCPEGLRLVGSEVGDRTLPGWPVTLPDPGMSLTDRGVMSYVRHVLSCLGGGLALWRAGQWLWAQRLGHCHTYWAVSEELLPNSGHGPDGEVPKDKEGGVFDLGPFIVDLITFTEGSGRSPRYALWFCVGESWPQDQPWTKRLVMVKVVPTCLRALVEMARVGGASSLENTVDLHISNSHPLSLTSDQYKAYLQDLVEGMDFQGPGES

- binding [2]: binds
- binding [3]: binds
B2: IRF3, endogenous in mouse cells (protein, UniProt P70671 1-419)
chain: METPKPRILPWLVSQLDLGQLEGVAWLDESRTRFRIPWKHGLRQDAQMADFGIFQAWAEASGAYTPGKDKPDVSTWKRNFRSALNRKEVLRLAADNSKDPYDPHKVYEFVTPGARDFVHLGASPDTNGKSSLPHSQENLPKLFDGLILGPLKDEGSSDLAIVSDPSQQLPSPNVNNFLNPAPQENPLKQLLAEEQWEFEVTAFYRGRQVFQQTLFCPGGLRLVGSTADMTLPWQPVTLPDPEGFLTDKLVKEYVGQVLKGLGNGLALWQAGQCLWAQRLGHSHAFWALGEELLPDSGRGPDGEVHKDKDGAVFDLRPFVADLIAFMEGSGHSPRYTLWFCMGEMWPQDQPWVKRLVMVKVVPTCLKELLEMAREGGASSLKTVDLHISNSQPISLTSDQYKAYLQDLVEDMDFQATGNI
